Data on 65 compounds can be found in PubChem BioAssay AID493014 (National Center for Advancing Translational Sciences (NCATS), 2011).

Some of the results follow. The main result of the screen is listed elsewhere. These columns were measured beside it and carry no call. The list favours compounds with an active or inconclusive main result. Words in brackets tell the shape of the fitted curve; partial curves, single points and poor fits give uncertain potencies.

A short description of this test: qHTS Assay to Find Inhibitors of Chronic Active B-Cell Receptor Signaling. The settings on record: ABC-DLBCL IkBa-CBG/CBR reporter, luminescence ratio (green luciferase fused to IkBa over red control in TMD8 lymphoma cells), 4 h. An outline of the steps: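 Doxycycline induced both beetle luciferases in TMD8 lymphoma cells; IKK-driven degradation limits the IkappaBalpha-fused green signal, while red luminescence normalises for cell number and nonspecific effects. Compounds tested up to 46 uM, 4 hrs.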
On the technique in general: In qHTS, concentration-response curves come from the screen itself.

[1] abbreviates: measured here: CBR red luminescence, cell number.
Where [2] appears, read: measured here: IkBa-CBG green luminescence.

A word on the AC50: it is the midpoint of the concentration-response curve, whichever way the signal moves. On to `CN(Cc1nc(-c2ccccn2)no1)S(=O)(=O)c1ccccc1`, for which, under setting [1], the AC50 was 0.651 µM [falling, full curve, poor fit].
With `CCN1C(=O)[C@@H]2[C@@H](c3ccc(-c4ccc(OC)cc4)c(OC)c3)N3CCCC[C@@]3(C(=O)OC)[C@@H]2C1=O`, the concentration at half-maximal activity (AC50) under setting [1] is 4.61 µM [rising, single point].
Same read-out and setting: with `COc1cccc(Cn2nnc(C(=O)NCCc3ccc(Cl)cc3)c2N)c1` the figure was 2.91 µM [rising, partial curve, poor fit].
On to `CCOC(=O)Cn1cc(/C=C/[N+](=O)[O-])c2ccccc21`, for which, under setting [2], the AC50 was 35.5 µM [falling, single point].
On to `Oc1cc2c(cc1O)C1c3ccc(O)c(O)c3OCC1(O)C2` (stereo unspecified), for which the AC50 under setting [1] is 10 µM [falling, single point].
As for `CC(C)(C)SCCNC(=O)COc1ccccc1`, under setting [1], the concentration at half-maximal activity (AC50) is 0.517 µM [rising, partial curve, poor fit].
Still for that read-out and setting: with `O=C(/C=C/c1cccs1)NC(=S)NNC(=O)c1ccccc1O` the figure was 12.6 µM [falling, partial curve, poor fit]; with `O=C(COc1ccc(Cl)cc1)N(Cc1ccccc1)c1nc(-c2ccccc2)cs1`, 0.562 µM [rising, full curve, poor fit]; with `Cc1ccc(C(=O)Nc2cccc3[nH]c(C(F)(F)F)nc23)cc1`, 10 µM [falling, partial curve, poor fit].
As to `COC(=O)c1cc(-c2ccc(OC)cc2)n[nH]1`, the half-maximal activity concentration (AC50) under setting [1] is 14.1 µM [rising, partial curve, poor fit].
With `Cc1cccc(C2(c3cccc(C)c3)OC(=O)c3ccccc32)c1`, the AC50 under setting [1] was 22.4 µM [falling, partial curve, poor fit].
`CCC(NC(=O)c1cc(COc2cc(C)c(Cl)c(C)c2)on1)c1ccncc1` (stereo unspecified): the half-maximal activity concentration (AC50) under setting [1] was 11.2 µM [falling, partial curve, poor fit].
On to `COc1ccc(Cl)cc1N(C)C(=O)CCc1nc(-c2ccc(C)cc2)no1`, for which the AC50 under setting [1] is 35.5 µM [falling, single point].
As to `CC1CCC/C(=N/Nc2nc3ccccc3s2)C1` (stereo unspecified), the AC50 under setting [1] is 6.31 µM [falling, full curve].
In the case of `COc1ccc(Cl)cc1C(=O)Nc1ccc(S(=O)(=O)N2CCCC2)cc1`, the half-maximal activity concentration (AC50) under setting [1] is 20.6 µM [rising, single point].
Still for that read-out and setting: as for `CCCCNCc1cc(Cl)c(OCCC)c(OCC)c1`, the figure is 0.103 µM [falling, full curve, poor fit].
`Cc1ccc(OCCCN2CCOCC2)c([N+](=O)[O-])c1`: the AC50 under setting [1] is 29.1 µM [rising, partial curve, poor fit].
In the case of `Cc1cc(O)c(C(C)C)cc1NC(=O)Nc1cccc2ccccc12`, under setting [1], the AC50 is 35.5 µM [falling, single point].
`CCN1CCN(c2oc(COc3ccc(-c4ccccc4)cc3)nc2C#N)CC1`: under setting [1], the half-maximal activity concentration (AC50) was 35.5 µM [falling, single point].
The same measure, in the same setting: as for `COc1cc(/C=C2/C(=N)N3C(SC)=NSC3=NC2=O)ccc1OC(=O)c1ccco1`, the figure is 1.26 µM [rising, full curve]; as for `Cc1cc(-c2ccccc2)nc2cc(C(=O)OC(C)C)nn12`, 31.6 µM [rising, single point]; as for `COc1ccc(S(=O)(=O)Nc2cc3c4c(oc3c3ccccc23)CCCC4=O)cc1`, 23.1 µM [rising, single point].
The same measure, in the same setting: with `CN1C(=O)NC(c2ccc(O)cc2)C2=C1CN(c1ccc(O)cc1)C2=O` (stereo unspecified) the figure was 25.1 µM [rising, single point]; with `O=C(CC(=O)c1ccccc1)Nc1cccnc1Cl`, 11.6 µM [falling, partial curve]; with `O=C(Cn1c[n+](CC(=O)c2ccc([N+](=O)[O-])cc2)cn1)c1ccc([N+](=O)[O-])cc1`, 12.6 µM [falling, single point].
The same measure, in the same setting: with `Cc1cccc(NC(=O)CSC2=NN3CCCC(=O)N=C3S2)c1C` the figure was 8.91 µM [rising, partial curve, poor fit]; with `CCCCOc1ccccc1C1CC(=O)Nc2cc(C)c(C)cc21` (stereo unspecified), 14.1 µM [rising, partial curve, poor fit].
`CNc1nc(C)nc(N/N=C/c2ccccc2)n1`: under setting [1], the AC50 is 7.94 µM [falling, partial curve].
Same read-out and setting: with `CC1CCCCC1NC(=O)NC(=O)CCl` (stereo unspecified) the figure was 25.9 µM [falling, single point]; with `O=C1CCCc2nc(N3CCN(c4ccccc4)CC3)ncc21`, 0.794 µM [rising, full curve, poor fit].
The same measure, in the same setting: as for `C=CC[C@H](CC(=O)N(CCO)Cc1ccccc1)C(=O)N[C@@H](COC(=O)[C@@H](CC=C)CC(=O)OC(C)(C)C)Cc1c[nH]c2ccccc12`, the figure is 29.1 µM [falling, single point].
On to `OC(COc1ccc2ccccc2c1)Cn1cncn1` (stereo unspecified), for which the AC50 under setting [1] is 3.26 µM [rising, partial curve, poor fit].
Same read-out and setting: with `COc1ccc(-c2cc3cc(OC)c(OC)cc3cn2)cc1` the figure was 0.651 µM [rising, full curve, poor fit]; with `CCOC(=O)N1CCN(C(=O)c2cc(Cl)c(Cl)cc2C(=O)O)CC1`, 29.1 µM [rising, single point].
Regarding `CCOC(=O)C1=C(C)NC(SCC(=O)O)=NC1c1ccccc1` (stereo unspecified), under setting [1], the half-maximal activity concentration (AC50) was 10 µM [falling, partial curve, poor fit].
On the same count and under the same terms, as for `COc1ccccc1OC(=O)C1CC(=O)N(c2ccc(Cl)cc2)C1` (stereo unspecified), the figure is 6.51 µM [rising, single point]; as for `Cc1ccc(C(=O)CCC(=O)Nc2ccc(C)cn2)cc1`, 13 µM [falling, partial curve]; as for `Cc1cccnc1NC(=O)C1COc2ccccc2O1` (stereo unspecified), 35.5 µM [rising, single point].
For `Cc1cc2nc(-c3ccc(NC(=O)c4cccnc4)cc3)oc2cc1C`, under setting [1], the AC50 is 2.24 µM [rising, partial curve, poor fit].
On the same count and under the same terms, with `C(=N/N1CCN(c2ccccc2)CC1)/c1cccs1` the figure was 1.16 µM [rising, full curve]; with `O=C(O)[C@H]1CCCC[C@H]1C(=O)NCCc1ccccc1`, 5.17 µM [rising, partial curve, poor fit]; with `CC(=O)c1cc2c(cc1NC(=O)c1c(-c3ccccc3)noc1C)OCO2`, 1.12 µM [falling, partial curve, poor fit].
On the same count and under the same terms, with `Cc1ccc(N(CC(O)Cn2c3ccccc3c3ccccc32)S(C)(=O)=O)c(C)c1` (stereo unspecified) the figure was 35.5 µM [falling, single point]; with `Cn1c(=O)c(C#N)c(-c2ccc(F)cc2)c2cc(C(=O)c3cc(Cl)cc(Cl)c3O)cnc21`, 14.1 µM [falling, single point].
Still for that read-out and setting: as for `CCOc1ccccc1NC(=S)NCc1ccccc1`, the figure is 1.26 µM [rising, full curve, poor fit].
As for `O=C(CNC(=O)c1ccc([N+](=O)[O-])cc1)N/N=C\c1ccc(OC(=O)c2ccccc2)cc1`, under setting [1], the AC50 is 5.8 µM [falling, single point].
As for `O=C(O)c1cc(Cl)ccc1NC(=O)C1CCCO1` (stereo unspecified), the half-maximal activity concentration (AC50) under setting [1] was 35.5 µM [falling, single point].
As to `CCCc1nnc(SCC(=O)Nc2nccs2)o1`, the half-maximal activity concentration (AC50) was 35.5 µM [rising, single point] under setting [1] and 35.5 µM [falling, single point] under setting [2].
For `NNC(=O)c1cccc(S(=O)(=O)Nc2cccc(C(F)(F)F)c2)c1`, under setting [1], the AC50 was 2 µM [falling, partial curve, poor fit].
As for `O=C(N/N=C/c1ccc(Br)s1)c1c[nH]c2ccccc12`, the concentration at half-maximal activity (AC50) under setting [1] was 11.6 µM [falling, partial curve].
Still for that read-out and setting: as for `CCOc1ccc(S(=O)(=O)N2CCOCC2)cc1NC(=O)CSCc1c(C)noc1C`, the figure is 20.6 µM [rising, single point].
The same measure, in the same setting: as for `CCOC(=O)N1CCN(C(=O)CSc2nc(CC)nc3c2c(=O)n(C)c(=O)n3C)CC1`, the figure is 0.447 µM [rising, partial curve, poor fit].
On the same count and under the same terms, as for `CCOC(=O)N1CCN(C(=O)Nc2ccc3oc(C)nc3c2)CC1`, the figure is 6.51 µM [falling, single point]; as for `COc1ccc(OCC(O)CN2C(=O)NC(C)(C)C2=O)cc1` (stereo unspecified), 2.82 µM [rising, partial curve, poor fit].
Regarding `Cc1cccc(Nc2sc(C(=O)c3ccc(Cl)cc3)c(N)c2C(N)=O)c1`, the AC50 under setting [1] is 10 µM [falling, partial curve].
The same measure, in the same setting: as for `CCCNC(=O)c1c(CSc2ccccc2)noc1C(=O)NCc1ccccc1`, the figure is 35.5 µM [falling, single point].
For `O=C(Oc1c(Cl)cc(Cl)c2cccnc12)c1cccs1`, under setting [2], the AC50 is 16.4 µM [falling, partial curve].
With `NC(=O)c1ccccc1N/C=C/C(=O)c1ccccc1`, the AC50 under setting [1] is 0.731 µM [falling, full curve].
Still for that read-out and setting: as for `Cn1nc(-c2ccccc2)c(CSc2ccccc2Cl)c1Cl`, the figure is 23.1 µM [rising, single point]; as for `CCN(CC)C(=O)c1ccc(O)c(OC)c1`, 23.1 µM [rising, single point].
Turning to `CC(C)c1nnc(NC(=O)CSc2nnc(-c3ccco3)o2)s1`, the half-maximal activity concentration (AC50) under setting [1] was 12.6 µM [falling, partial curve, poor fit].
Take `Cc1cc(NC(=O)CSc2n[nH]c(-c3ccccc3Br)n2)no1`: under setting [1], the AC50 was 2.06 µM [falling, partial curve, poor fit].
As for `C=CCSc1nnc(-c2cc(C(C)(C)C)nn2Cc2ccc(F)cc2)n1C`, the AC50 under setting [1] is 35.5 µM [rising, partial curve, poor fit].
As for `Cc1ccc(-c2n[nH]c(=S)n2/N=C/C=C\c2ccccc2[N+](=O)[O-])cc1`, under setting [1], the half-maximal activity concentration (AC50) is 3.26 µM [rising, single point].
Same read-out and setting: with `Cc1cc(C)n(-c2nnc3n2N=C(c2ccccc2)CS3)n1` the figure was 0.164 µM [rising, full curve, poor fit].
